Assay results reported in the supplement of paper PMC10849652.
The list shows a part of the results.

The chains behind the UniProt entries cited, without tags or fusion partners. Where a name states a change or a piece, a line headed by the entry shows the natural chain unless it says otherwise.
UniProt P48723: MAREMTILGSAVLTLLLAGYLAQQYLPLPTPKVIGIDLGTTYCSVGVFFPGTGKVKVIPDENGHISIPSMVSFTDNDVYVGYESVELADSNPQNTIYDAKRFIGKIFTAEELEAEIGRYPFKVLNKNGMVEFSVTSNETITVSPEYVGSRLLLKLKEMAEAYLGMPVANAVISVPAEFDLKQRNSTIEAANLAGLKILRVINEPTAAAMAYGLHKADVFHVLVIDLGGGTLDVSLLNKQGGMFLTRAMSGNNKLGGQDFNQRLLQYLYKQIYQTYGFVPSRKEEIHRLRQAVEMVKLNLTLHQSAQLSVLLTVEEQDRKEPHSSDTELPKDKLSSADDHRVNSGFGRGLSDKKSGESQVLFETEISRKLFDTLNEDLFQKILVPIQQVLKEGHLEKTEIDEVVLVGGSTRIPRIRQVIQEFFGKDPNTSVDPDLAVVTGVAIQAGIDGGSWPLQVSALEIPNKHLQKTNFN
UniProt Q9NX55: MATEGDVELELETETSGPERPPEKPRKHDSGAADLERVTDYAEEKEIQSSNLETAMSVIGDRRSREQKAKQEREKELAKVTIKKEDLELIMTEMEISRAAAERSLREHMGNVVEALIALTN
UniProt H0YH80: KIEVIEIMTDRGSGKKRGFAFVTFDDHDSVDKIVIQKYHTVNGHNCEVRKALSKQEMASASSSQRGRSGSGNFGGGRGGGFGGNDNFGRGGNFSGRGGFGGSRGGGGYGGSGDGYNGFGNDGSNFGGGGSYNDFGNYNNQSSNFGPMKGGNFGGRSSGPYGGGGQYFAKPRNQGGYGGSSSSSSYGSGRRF
UniProt Q53GQ0: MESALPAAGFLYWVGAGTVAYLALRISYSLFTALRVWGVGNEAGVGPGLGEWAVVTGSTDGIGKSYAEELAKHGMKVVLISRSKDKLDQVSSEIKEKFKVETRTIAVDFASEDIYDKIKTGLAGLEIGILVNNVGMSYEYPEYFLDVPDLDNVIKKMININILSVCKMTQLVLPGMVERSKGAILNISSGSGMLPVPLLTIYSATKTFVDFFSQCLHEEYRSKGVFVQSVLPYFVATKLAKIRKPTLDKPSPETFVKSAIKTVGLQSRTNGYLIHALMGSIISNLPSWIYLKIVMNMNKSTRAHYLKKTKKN
UniProt Q96JB3: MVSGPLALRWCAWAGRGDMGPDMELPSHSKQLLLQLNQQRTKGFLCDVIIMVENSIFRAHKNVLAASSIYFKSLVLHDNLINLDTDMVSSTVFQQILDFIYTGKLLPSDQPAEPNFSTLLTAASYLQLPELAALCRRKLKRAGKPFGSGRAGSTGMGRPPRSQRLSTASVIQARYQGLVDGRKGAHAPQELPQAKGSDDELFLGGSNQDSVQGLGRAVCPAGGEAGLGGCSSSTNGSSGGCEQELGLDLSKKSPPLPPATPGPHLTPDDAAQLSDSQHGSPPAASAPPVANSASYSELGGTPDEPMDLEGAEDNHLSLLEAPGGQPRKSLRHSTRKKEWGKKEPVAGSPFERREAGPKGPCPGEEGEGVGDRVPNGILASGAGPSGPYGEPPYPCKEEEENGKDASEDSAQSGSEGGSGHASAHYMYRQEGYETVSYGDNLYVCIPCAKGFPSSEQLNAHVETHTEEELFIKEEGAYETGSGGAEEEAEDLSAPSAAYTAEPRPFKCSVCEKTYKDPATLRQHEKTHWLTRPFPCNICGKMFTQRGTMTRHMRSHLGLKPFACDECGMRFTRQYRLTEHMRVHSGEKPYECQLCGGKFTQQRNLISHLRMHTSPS
UniProt Q9Y4L1: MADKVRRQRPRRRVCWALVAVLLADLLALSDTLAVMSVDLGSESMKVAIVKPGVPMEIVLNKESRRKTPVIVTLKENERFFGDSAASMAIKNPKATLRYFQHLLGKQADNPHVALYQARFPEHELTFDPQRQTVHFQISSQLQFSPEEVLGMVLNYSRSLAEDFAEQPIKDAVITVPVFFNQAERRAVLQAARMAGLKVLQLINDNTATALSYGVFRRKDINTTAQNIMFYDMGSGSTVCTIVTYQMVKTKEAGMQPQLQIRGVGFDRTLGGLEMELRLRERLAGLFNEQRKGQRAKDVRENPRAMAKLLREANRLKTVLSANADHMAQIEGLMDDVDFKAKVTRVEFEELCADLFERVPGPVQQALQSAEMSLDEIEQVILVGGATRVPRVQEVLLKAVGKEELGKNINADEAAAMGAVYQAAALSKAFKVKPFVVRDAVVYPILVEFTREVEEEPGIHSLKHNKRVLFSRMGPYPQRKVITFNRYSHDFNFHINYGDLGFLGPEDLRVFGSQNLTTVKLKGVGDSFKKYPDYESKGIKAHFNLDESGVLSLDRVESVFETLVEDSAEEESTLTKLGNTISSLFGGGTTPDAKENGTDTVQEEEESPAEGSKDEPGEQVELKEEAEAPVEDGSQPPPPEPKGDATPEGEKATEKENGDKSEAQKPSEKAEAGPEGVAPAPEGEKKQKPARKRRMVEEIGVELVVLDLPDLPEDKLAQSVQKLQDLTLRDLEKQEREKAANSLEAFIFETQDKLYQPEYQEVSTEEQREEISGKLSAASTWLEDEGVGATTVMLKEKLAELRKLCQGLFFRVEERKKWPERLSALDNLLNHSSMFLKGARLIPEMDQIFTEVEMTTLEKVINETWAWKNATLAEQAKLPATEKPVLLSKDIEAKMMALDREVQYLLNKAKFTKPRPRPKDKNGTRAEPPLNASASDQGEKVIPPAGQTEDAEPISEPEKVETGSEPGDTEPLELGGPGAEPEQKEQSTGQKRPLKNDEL
UniProt Q0VDF9: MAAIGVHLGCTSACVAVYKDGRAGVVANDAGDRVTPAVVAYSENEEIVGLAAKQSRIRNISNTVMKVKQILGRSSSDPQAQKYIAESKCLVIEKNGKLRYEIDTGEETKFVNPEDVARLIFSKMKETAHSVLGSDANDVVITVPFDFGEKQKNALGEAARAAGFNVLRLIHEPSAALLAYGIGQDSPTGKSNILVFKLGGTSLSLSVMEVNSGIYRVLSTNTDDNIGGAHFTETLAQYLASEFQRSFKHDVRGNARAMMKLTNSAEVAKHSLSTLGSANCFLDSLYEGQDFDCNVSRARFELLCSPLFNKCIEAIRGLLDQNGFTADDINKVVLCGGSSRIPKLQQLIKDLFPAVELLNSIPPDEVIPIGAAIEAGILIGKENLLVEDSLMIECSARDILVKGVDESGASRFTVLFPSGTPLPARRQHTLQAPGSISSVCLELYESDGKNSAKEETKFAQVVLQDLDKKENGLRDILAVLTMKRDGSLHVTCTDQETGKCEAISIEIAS
UniProt Q9BUP3: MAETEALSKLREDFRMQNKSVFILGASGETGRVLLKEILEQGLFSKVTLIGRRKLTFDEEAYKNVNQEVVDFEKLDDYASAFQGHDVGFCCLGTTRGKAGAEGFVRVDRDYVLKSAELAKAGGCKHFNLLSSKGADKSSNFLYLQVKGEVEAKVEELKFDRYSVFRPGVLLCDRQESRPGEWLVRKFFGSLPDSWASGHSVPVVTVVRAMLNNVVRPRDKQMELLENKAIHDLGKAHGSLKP
UniProt Q9NZL4: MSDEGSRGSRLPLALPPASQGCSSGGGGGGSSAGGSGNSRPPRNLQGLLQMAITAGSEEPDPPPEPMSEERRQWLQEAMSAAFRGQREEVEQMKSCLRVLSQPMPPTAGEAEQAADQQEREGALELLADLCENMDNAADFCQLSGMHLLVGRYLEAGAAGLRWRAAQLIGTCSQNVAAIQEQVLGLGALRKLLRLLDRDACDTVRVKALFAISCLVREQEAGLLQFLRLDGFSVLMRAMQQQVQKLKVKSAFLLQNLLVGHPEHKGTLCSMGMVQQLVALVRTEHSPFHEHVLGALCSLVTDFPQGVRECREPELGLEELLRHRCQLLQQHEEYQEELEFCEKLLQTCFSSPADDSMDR
UniProt Q86VS8: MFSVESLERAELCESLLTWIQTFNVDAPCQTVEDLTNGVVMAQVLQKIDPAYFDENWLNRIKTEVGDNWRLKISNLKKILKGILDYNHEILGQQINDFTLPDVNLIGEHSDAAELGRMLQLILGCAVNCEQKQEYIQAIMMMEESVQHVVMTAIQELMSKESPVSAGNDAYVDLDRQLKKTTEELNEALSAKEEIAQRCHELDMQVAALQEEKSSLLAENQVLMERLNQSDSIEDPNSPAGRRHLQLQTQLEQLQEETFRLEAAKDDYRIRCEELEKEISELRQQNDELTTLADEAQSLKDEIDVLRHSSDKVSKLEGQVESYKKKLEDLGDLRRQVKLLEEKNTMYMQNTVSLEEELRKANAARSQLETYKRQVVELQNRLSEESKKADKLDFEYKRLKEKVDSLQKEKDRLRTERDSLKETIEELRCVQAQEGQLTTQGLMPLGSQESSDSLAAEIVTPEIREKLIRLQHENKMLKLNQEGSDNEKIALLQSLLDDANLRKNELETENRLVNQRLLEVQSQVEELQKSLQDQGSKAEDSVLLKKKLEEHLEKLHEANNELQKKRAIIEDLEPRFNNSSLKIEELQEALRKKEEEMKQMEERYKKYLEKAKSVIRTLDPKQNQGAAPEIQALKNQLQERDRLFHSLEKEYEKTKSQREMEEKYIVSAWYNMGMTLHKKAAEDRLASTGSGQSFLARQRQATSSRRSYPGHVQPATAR
UniProt O14964, whole entry, looked up: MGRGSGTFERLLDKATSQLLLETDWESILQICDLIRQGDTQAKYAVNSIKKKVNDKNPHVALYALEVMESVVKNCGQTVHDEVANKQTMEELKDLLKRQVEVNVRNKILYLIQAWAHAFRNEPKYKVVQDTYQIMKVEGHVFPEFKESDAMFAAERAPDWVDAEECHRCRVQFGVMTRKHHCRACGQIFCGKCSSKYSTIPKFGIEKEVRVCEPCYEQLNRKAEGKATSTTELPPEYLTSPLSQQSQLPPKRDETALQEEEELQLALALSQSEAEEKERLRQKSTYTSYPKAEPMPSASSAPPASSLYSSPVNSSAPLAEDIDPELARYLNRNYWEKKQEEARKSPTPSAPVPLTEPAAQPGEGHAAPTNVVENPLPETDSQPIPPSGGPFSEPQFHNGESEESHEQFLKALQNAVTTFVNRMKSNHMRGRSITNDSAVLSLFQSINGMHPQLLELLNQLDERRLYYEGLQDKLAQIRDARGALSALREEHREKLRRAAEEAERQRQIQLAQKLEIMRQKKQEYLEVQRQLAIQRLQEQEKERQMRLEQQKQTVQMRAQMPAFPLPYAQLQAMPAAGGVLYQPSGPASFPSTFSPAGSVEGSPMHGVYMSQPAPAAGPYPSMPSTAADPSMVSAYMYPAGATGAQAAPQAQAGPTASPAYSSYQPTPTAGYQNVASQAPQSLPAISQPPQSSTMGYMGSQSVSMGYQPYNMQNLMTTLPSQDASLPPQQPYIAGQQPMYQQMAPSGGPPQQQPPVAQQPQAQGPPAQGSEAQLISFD
UniProt P08397: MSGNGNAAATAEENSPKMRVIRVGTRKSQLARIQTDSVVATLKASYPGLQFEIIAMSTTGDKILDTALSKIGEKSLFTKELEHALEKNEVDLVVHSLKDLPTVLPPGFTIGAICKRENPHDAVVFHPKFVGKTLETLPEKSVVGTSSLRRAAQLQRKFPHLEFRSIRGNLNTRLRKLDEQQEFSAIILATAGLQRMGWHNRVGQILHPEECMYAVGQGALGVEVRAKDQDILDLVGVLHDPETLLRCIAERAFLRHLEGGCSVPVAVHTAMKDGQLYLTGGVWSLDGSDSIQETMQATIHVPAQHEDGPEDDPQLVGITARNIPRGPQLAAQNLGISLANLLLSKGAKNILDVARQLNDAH
UniProt P31942: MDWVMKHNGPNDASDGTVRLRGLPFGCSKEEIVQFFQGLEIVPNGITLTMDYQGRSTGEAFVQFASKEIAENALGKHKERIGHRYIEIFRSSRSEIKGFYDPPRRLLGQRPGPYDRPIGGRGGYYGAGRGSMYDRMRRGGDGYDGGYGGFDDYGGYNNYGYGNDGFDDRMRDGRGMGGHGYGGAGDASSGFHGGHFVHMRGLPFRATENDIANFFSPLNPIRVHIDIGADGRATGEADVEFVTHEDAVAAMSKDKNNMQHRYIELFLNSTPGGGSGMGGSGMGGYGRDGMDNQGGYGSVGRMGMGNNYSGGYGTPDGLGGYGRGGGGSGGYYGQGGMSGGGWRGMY
UniProt Q6NVY1: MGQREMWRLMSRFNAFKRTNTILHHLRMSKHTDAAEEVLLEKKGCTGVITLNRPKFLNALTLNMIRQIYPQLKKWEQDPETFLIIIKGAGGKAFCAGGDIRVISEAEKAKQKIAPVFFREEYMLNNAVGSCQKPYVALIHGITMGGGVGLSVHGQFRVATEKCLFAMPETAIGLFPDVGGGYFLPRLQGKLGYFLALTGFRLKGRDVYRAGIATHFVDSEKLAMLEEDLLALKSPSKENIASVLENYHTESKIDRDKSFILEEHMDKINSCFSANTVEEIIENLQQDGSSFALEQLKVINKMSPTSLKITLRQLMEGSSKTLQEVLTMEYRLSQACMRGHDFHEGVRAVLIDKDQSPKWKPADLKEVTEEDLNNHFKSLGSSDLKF

Legend:
Assay in all cases: log2 fold change, soluble protein after heating vs DMSO (PISA); higher = thermal stabilisation; K562 cells, 10 uM, 30 min; active = over 0.2 and 3.5 SD of the protein, either way, in both replicates (recomputed)
[1] = compound: C1=CC=C(C=C1)[C@H](COC2=CC3=C(C=C2)NC(=O)N3)NC(=O)C4=CC=CN(C4=O)CC5=CC(=C(C=C5)F)F
Outline: (§1)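 Soluble protein was quantified by TMTpro 16plex LC-MS/MS after channel sums were equalised. It was obtained as the supernatant after 21,000xg for 90 min from pooled aliquots of K562 cells (2×10^6 cells/mL, 10 μM compound, 30 min) heated for 3 min across 48°C-58°C and extracted in PBS with 0.5% NP-40 at 4°C. Thermal stability values are relative to control samples and come from duplicates. They are given as log2 fold changes.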

[2] = compound: CC1=C(SC2=C1C(=N[C@H](C3=NN=C(N32)C)CC(=O)N)C4=CC=C(C=C4)Cl)C
Outline: as §1

[3] = compound: CC1=C2C(=CC=C1)N=C(N(C2=O)C3=CC=CC=C3C)CN4C=NC5=C(N=CN=C54)N
Outline: as §1

[4] = compound: Cc1sc2c(c1C)C(c1ccc(Cl)cc1)=N[C@@H](CC(=O)OC(C)(C)C)c1nnc(C)n1-2
Outline: as §1

[5] = compound: c1ccc([C@@H]2C[C@H]2NC2CCNCC2)cc1
Outline: as §1

Measured: log2 fold change

HSPA13 (UniProt P48723)
inactive: [1] 0.008 | [2] 0.019 | [3] 0.034 | [4] -0.046 | [5] -0.022

HRAS (UniProt P01112)
inactive: [1] 0.015 | [2] 0.116 | [3] -0.03 | [4] 0.016 | [5] 0.138

HYPK (UniProt Q9NX55)
inactive: [1] -0.068 | [2] 0.117 | [3] -0.01 | [4] -0.046 | [5] -0.023

HNRNPA1 (UniProt H0YH80)
inactive: [1] 0.122 | [2] -0.275 | [3] -0.427 | [4] 0.229 | [5] 0.07

HSP90AA1 isoform 2 (UniProt P07900)
inactive: [1] -0.03 | [2] 0.04 | [3] -0.002 | [4] 0.002 | [5] -0.034

HSDL1 (UniProt Q3SXM5)
inactive: [1] 0.021 | [2] 0.112 | [3] 0.064 | [4] -0.027 | [5] -0.022

HSD17B12 (UniProt Q53GQ0)
inactive: [1] 0.013 | [2] 0.061 | [3] 0.066 | [4] 0.042 | [5] -0.008

HIC2 (UniProt Q96JB3)
inactive: [1] 0.163 | [2] -0.053 | [3] -0.048 | [4] 0.205 | [5] 0.078

Quoted at random: 2 entries already listed
HSP90AA1 isoform 2 (UniProt P07900)
inactive: [1] -0.03 | [2] 0.04 | [3] -0.002 | [4] 0.002 | [5] -0.034

HSD17B12 (UniProt Q53GQ0)
inactive: [1] 0.013 | [2] 0.061 | [3] 0.066 | [4] 0.042 | [5] -0.008

Later entries

HSPB1 (UniProt P04792)
inactive: [1] 0.038 | [2] -0.004 | [3] 0.039 | [4] 0.006 | [5] -0.018

HYOU1 (UniProt Q9Y4L1)
inactive: [1] 0.031 | [2] -0.032 | [3] -0.011 | [4] -0.014 | [5] -0.02

HMCN1 (UniProt Q96RW7)
inactive: [1] -0.101 | [2] -0.039 | [3] -0.01 | [4] -0.003 | [5] -0.01

HSPA14 (UniProt Q0VDF9)
inactive: [1] -0.079 | [2] -0.015 | [3] 0.056 | [4] 0.062 | [5] -0.024

HTATIP2 isoform 3 (UniProt Q9BUP3)
inactive: [1] 0.063 | [2] 0.031 | [3] 0.059 | [4] 0.028 | [5] -0.03

HSPBP1 isoform 3 (UniProt Q9NZL4)
inactive: [1] -0.032 | [2] 0.022 | [3] 0.024 | [4] 0.023 | [5] -0.001

HNRNPUL2 (UniProt Q1KMD3)
inactive: [1] 0.054 | [2] -0.05 | [3] -0.041 | [4] 0.105 | [5] 0.04

HOOK3 (UniProt Q86VS8)
inactive: [1] -0.065 | [2] -0.003 | [3] 0.018 | [4] 0 | [5] 0.024

HGS (UniProt O14964)
inactive: [1] -0.019 | [2] 0.063 | [3] 0.087 | [4] -0.032 | [5] -0.02

HK2 (UniProt P52789)
inactive: [1] -0.006 | [2] 0.045 | [3] 0.007 | [4] -0.025 | [5] -0.016

HMBS (UniProt P08397)
inactive: [1] 0.003 | [2] 0.005 | [3] -0.026 | [4] -0.017 | [5] 0.012

HIST2H2AA3 (UniProt Q6FI13)
inactive: [1] 0.193 | [2] -0.246 | [3] -0.473 | [4] -0.027 | [5] 0.286

HNRNPH1 (UniProt P31943)
inactive: [1] -0.032 | [2] -0.007 | [3] 0.045 | [4] -0.015 | [5] -0.017

HSPA4 (UniProt P34932)
inactive: [1] -0.019 | [2] 0.047 | [3] 0.005 | [4] -0.012 | [5] 0.002

HNRNPH3 (UniProt P31942)
inactive: [1] 0.057 | [2] -0.329 | [3] -0.169 | [4] -0.08 | [5] 0.033

HIBCH (UniProt Q6NVY1)
inactive: [1] -0.035 | [2] 0.08 | [3] 0.053 | [4] -0.031 | [5] -0.028
